The supplement of paper PMC4256282, “Profound Activity of the Anti-cancer Drug Bortezomib against Echinococcus multilocularis Metacestodes Identifies the Proteasome as a Novel Drug Target for Cestodes” (PLoS Neglected Tropical Diseases, 2014)
Structures can show the parent of a compound that is named as a salt. The list shows a part of the results. Single values are uncertain, as repeats are few or missing.

System: Echinococcus multilocularis metacestodes
Assay: vesicle damage (PGI release) relative to positive control DB1127 at 20 µM, DMSO subtracted; higher = more parasite damage
Conditions: treatment time 5 days
Protocol: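 In vitro-cultured E. multilocularis metacestode vesicles (isolate H95, 2-4 mm) were treated in singlets with each drug of the Selleck FDA-approved library (426 drugs) at 20 µM for 5 days at 37°C. Damage was read as phosphoglucose isomerase (PGI) release into the medium, measured as the increase in absorbance at 340 nm. Activity was expressed as % of the positive control DB1127 (20 µM) after subtracting the DMSO control; a hit was defined as ≥50% of DB1127.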

Structure (SMILES) | vesicle damage [%]
CC[C@@]1(O)C(=O)OCc2c1cc1n(c2=O)Cc2cc3ccccc3nc2-1 [Camptothecin] | 2.66
CC1C=CC=CCCC=CC=CC=CC=CC(OC2OC(C)C(O)C(N)C2O)CC2OC(O)(CC(O)C(O)CCC(O)CC(O)CC(O)CC(=O)OC(C)C(C)C1O)CC(O)C2C(=O)O (centres undefined) [Nystatin] | -12.1
C[C@]12CC[C@H]3[C@@H](CCC4=CC(=O)CC[C@@]43C)[C@@H]1CC[C@@H]2OC(=O)CCC1CCCC1 [Testosterone cypionate] | -1.43
COc1ccc(C(CN(C)C)C2(O)CCCCC2)cc1 (centres undefined) [Venlafaxine hydrochloride] | 2.1
O=c1[nH]c2ccccc2n1CCCN1CCC(n2c(=O)[nH]c3cc(Cl)ccc32)CC1 [Domperidone] | 11.1
CN(C)C(=O)Oc1cccc([N+](C)(C)C)c1 [Neostigmine bromide] | 2.05
CN1[C@@H]2C[C@@H](OC(=O)[C@H](CO)c3ccccc3)C[C@H]1[C@@H]1O[C@@H]12 [Scopolamine hydrobromide] | -0.226
CCOC(=O)c1cncn1[C@H](C)c1ccccc1 [Etomidate] | -2.29
CC(=O)O[C@H]1C[C@@H]2CC[C@@H]3[C@H](CC[C@@]4(C)[C@H]3C[C@H]([N+]3(C)CCCCC3)[C@@H]4OC(C)=O)[C@@]2(C)C[C@@H]1[N+]1(C)CCCCC1 [Pancuronium bromide] | 3.42
NCC1(CC(=O)O)CCCCC1 [Gabapentin] | 1.72
C#C[C@]1(O)C=C[C@H]2[C@@H]3CCC4=CC(=O)CC[C@@H]4[C@H]3CC[C@@]21CC [Gestodene] | -4.12
NCC1(CC(=O)O)CCCCC1 [Gabapentin Hydrochloride] | -1.2
CN(C)C(=O)Oc1ccc[n+](C)c1 [Pyridostigmine Bromide] | -3.24
O=C(O[C@H]1C[C@H]2CC[C@@H](C1)[N+]21CCCC1)C(O)(c1ccccc1)c1ccccc1 [Trospium chloride] | 0.0302
C=C1C[C@@H]2[C@H](CC[C@]3(C)C(=O)CC[C@@H]23)[C@@]2(C)C=CC(=O)C=C12 [Exemestane] | -2.81
C[C@]12CC[C@H]3[C@@H](CC[C@@]45O[C@@H]4C(O)=C(C#N)C[C@]35C)[C@@H]1CC[C@@H]2O [Trilostane] | -0.281
N.N.[Cl][Pt][Cl] [Cisplatin] | 0.219
CCC(=O)O[C@H]1CC[C@H]2[C@@H]3CCC4=CC(=O)CC[C@]4(C)[C@H]3CC[C@]12C [Testosterone propionate] | -0.83
Cn1c(CCCC(=O)O)nc2cc(N(CCCl)CCCl)ccc21 [Bendamustine Hydrochloride] | 1.51
O=P1(NCCCl)OCCCN1CCCl (centres undefined) [Ifosfamide] | 3.08
CC(NC(C)(C)C)C(=O)c1cccc(Cl)c1 (centres undefined) [Amfebutamone hydrochloride] | 3.21
CC(O)(CS(=O)(=O)c1ccc(F)cc1)C(=O)Nc1ccc(C#N)c(C(F)(F)F)c1 (centres undefined) [Bicalutamide] | 4.91
Cc1cccc(C)c1NC(=O)CN1CCCC1=O [Nefiracetam] | -9.41
C#CCN(C)[C@H](C)Cc1ccccc1 [Selegiline hydrochloride] | 1.56
